The source of these data is article PMC9428494.

Chains of the proteins cited; added tags and fusions are not shown.
UniProt Q86TM6: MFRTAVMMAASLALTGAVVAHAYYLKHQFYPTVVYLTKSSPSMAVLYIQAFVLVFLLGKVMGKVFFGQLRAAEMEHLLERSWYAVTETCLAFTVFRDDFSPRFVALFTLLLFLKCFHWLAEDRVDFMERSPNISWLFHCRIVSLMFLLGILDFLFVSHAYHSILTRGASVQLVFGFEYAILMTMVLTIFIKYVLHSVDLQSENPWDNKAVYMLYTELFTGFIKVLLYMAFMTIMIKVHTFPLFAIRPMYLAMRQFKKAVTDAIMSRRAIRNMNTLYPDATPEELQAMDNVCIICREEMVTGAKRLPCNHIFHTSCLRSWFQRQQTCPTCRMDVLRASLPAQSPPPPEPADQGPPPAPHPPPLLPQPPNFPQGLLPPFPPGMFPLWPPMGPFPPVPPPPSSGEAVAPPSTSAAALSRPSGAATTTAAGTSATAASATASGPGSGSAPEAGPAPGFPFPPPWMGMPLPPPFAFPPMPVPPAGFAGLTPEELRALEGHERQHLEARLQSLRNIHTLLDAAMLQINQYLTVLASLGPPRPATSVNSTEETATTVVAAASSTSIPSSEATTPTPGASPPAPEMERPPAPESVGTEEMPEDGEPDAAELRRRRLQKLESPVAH

Results are given in words; binding and its absence hold for the method and conditions named. Binding seen in cells or lysates may run through a third protein. Some binding calls cover weakened binding; strength is not graded here. Where a sequence is shown, tags or fusion partners need not be part of it.

This experiment has as its target T1, ZNF280A (human (endogenous in colorectal cancer cells; cell line not named for this experiment)) (UniProt P59817).
T1 sequence: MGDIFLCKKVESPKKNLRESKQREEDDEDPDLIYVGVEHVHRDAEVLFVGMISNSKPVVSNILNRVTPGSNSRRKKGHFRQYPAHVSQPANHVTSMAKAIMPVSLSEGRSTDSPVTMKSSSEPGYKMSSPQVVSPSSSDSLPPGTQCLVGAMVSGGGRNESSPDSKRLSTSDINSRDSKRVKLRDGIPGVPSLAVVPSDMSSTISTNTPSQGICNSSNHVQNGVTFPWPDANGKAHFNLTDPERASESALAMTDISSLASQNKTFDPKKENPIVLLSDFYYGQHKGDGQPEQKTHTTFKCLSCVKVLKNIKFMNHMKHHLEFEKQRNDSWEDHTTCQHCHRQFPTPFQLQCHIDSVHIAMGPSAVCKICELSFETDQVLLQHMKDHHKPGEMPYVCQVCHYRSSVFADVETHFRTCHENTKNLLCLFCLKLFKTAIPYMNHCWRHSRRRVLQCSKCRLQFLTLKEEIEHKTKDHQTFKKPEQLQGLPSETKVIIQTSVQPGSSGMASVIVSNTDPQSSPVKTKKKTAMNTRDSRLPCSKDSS
Description: co-IP; endogenous proteins; antibody captured on Dynabeads; which protein was precipitated and which cell line was used are not stated.

For “E3 ubiquitin ligase SYVN1 (from UniProt Q86TM6 1-617) (enzyme)”, the binding result is “binds”.
